Taken from: PubChem BioAssay AID652248 (Drosophila RNAi Screening Center, 2013)

Assay: 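Kinase and phosphatase regulators of cell lengthening and shape variety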 (primary screen)
Cells: cultured Drosophila hemocytes
Reagents: long dsRNA against Drosophila genes
Measured: 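Automated microscopy of stained actin, tubulin and nuclei; single-cell shape measures assigned to five reference shape types, giving a score per dsRNA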
Reading the numbers: elongated score: higher = more elongated bipolar cells; normal round score: higher = more normal rounded cells
Rule for the call: 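a gene counts as active when its knock-down clearly increases the elongated score; a low similarity score was then used to rank the actives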
The deposit covers 863 reagents; below is a random part of them. Over the whole deposit, 32 (3.7%) got an active call. 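Calls also used reproducibility and a similarity ranking whose scores are not deposited; many active genes show only modest elongated scores.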 Reagents against one gene are numbered here. Names joined by + are all predicted targets of the reagent. Not all columns of the deposit are shown. Not stated in the record: the amount of reagent, the time to read-out.

The opening 2 entries as a preview:
{"Target gene": "CG8298", "dsRNA no.": 1, "elongated score, rep 1": -0.53, "normal round score, rep 1": -0.52, "Call": "inactive"}
{"Target gene": "Tsen54", "dsRNA no.": 1, "elongated score, rep 1": -0.53, "normal round score, rep 1": 0.57, "Call": "inactive"}

Main list, repeating the preview:
{"Target gene": "CG8298", "dsRNA no.": 1, "elongated score, rep 1": -0.53, "normal round score, rep 1": -0.52, "Call": "inactive"}
{"Target gene": "Tsen54", "dsRNA no.": 1, "elongated score, rep 1": -0.53, "normal round score, rep 1": 0.57, "Call": "inactive"}
{"Target gene": "Tsen54", "dsRNA no.": 2, "elongated score, rep 1": -0.17, "normal round score, rep 1": -0.32, "Call": "inactive"}
{"Target gene": "sls", "dsRNA no.": 1, "elongated score, rep 1": 0.95, "normal round score, rep 1": -0.8, "Call": "inactive"}
{"Target gene": "sls", "dsRNA no.": 2, "elongated score, rep 1": -0.53, "normal round score, rep 1": 0.98, "Call": "inactive"}
{"Target gene": "sls", "dsRNA no.": 3, "elongated score, rep 1": -0.53, "normal round score, rep 1": -0.53, "Call": "inactive"}
{"Target gene": "pkaap", "dsRNA no.": 1, "elongated score, rep 1": -0.37, "normal round score, rep 1": -3.96, "Call": "inactive"}
{"Target gene": "CG2577", "dsRNA no.": 1, "elongated score, rep 1": -0.53, "normal round score, rep 1": 0.25, "Call": "inactive"}
{"Target gene": "CG2577", "dsRNA no.": 2, "elongated score, rep 1": -0.53, "normal round score, rep 1": -0.29, "Call": "inactive"}
{"Target gene": "CG2577", "dsRNA no.": 3, "elongated score, rep 1": -0.13, "normal round score, rep 1": -1.67, "Call": "inactive"}
{"Target gene": "MAPk-Ak2", "dsRNA no.": 1, "elongated score, rep 1": -0.53, "normal round score, rep 1": 1.24, "Call": "inactive"}
{"Target gene": "MAPk-Ak2", "dsRNA no.": 2, "elongated score, rep 1": 2.65, "normal round score, rep 1": -1.2, "Call": "inactive"}
{"Target gene": "sgg", "dsRNA no.": 1, "elongated score, rep 1": -0.05, "normal round score, rep 1": -0.21, "Call": "inactive"}
{"Target gene": "sgg", "dsRNA no.": 2, "elongated score, rep 1": -0.29, "normal round score, rep 1": 0.26, "Call": "inactive"}
{"Target gene": "sgg", "dsRNA no.": 3, "elongated score, rep 1": -0.35, "normal round score, rep 1": 0.81, "Call": "inactive"}
{"Target gene": "sgg", "dsRNA no.": 4, "elongated score, rep 1": 2.37, "normal round score, rep 1": -1.98, "Call": "inactive"}
{"Target gene": "mod(mdg4) + pre-mod(mdg4)-T + pre-mod(mdg4)-Z", "dsRNA no.": 1, "elongated score, rep 1": -0.53, "normal round score, rep 1": 0.57, "Call": "inactive"}
{"Target gene": "mod(mdg4) + pre-mod(mdg4)-T + pre-mod(mdg4)-Z", "dsRNA no.": 2, "elongated score, rep 1": -0.53, "normal round score, rep 1": 0.03, "Call": "inactive"}
{"Target gene": "JIL-1", "dsRNA no.": 1, "elongated score, rep 1": -0.53, "normal round score, rep 1": -1.22, "Call": "inactive"}
{"Target gene": "Vps15", "dsRNA no.": 1, "elongated score, rep 1": 1.32, "normal round score, rep 1": -1.31, "Call": "inactive"}
{"Target gene": "CG32812", "dsRNA no.": 1, "elongated score, rep 1": 2.17, "normal round score, rep 1": -2.9, "Call": "inactive"}
{"Target gene": "CG3277", "dsRNA no.": 1, "elongated score, rep 1": 0.03, "normal round score, rep 1": 0.19, "Call": "inactive"}
{"Target gene": "Cdk2", "dsRNA no.": 1, "elongated score, rep 1": -0.03, "normal round score, rep 1": -0.68, "Call": "inactive"}
{"Target gene": "PpV", "dsRNA no.": 1, "elongated score, rep 1": -0.53, "normal round score, rep 1": 0.3, "Call": "inactive"}
{"Target gene": "PpV", "dsRNA no.": 2, "elongated score, rep 1": 1.24, "normal round score, rep 1": -1.12, "Call": "inactive"}
{"Target gene": "PpV", "dsRNA no.": 3, "elongated score, rep 1": 2.25, "normal round score, rep 1": -1.23, "Call": "inactive"}
{"Target gene": "IP3K1", "dsRNA no.": 1, "elongated score, rep 1": 0.01, "normal round score, rep 1": -0.06, "Call": "inactive"}
{"Target gene": "wrd", "dsRNA no.": 1, "elongated score, rep 1": -0.53, "normal round score, rep 1": 0.91, "Call": "inactive"}
{"Target gene": "wrd", "dsRNA no.": 2, "elongated score, rep 1": -0.18, "normal round score, rep 1": 0.16, "Call": "inactive"}
{"Target gene": "wrd", "dsRNA no.": 3, "elongated score, rep 1": 1.14, "normal round score, rep 1": -1.06, "Call": "inactive"}
{"Target gene": "CycT", "dsRNA no.": 1, "elongated score, rep 1": -0.53, "normal round score, rep 1": -0.68, "Call": "inactive"}
{"Target gene": "CycT", "dsRNA no.": 2, "elongated score, rep 1": -0.53, "normal round score, rep 1": -0.25, "Call": "inactive"}
{"Target gene": "CycT", "dsRNA no.": 3, "elongated score, rep 1": 0.58, "normal round score, rep 1": -1.65, "Call": "inactive"}
{"Target gene": "Mbs", "dsRNA no.": 1, "elongated score, rep 1": -0.53, "normal round score, rep 1": 0.82, "Call": "inactive"}
{"Target gene": "Mbs", "dsRNA no.": 2, "elongated score, rep 1": 0.37, "normal round score, rep 1": 0.41, "Call": "inactive"}
{"Target gene": "Mbs", "dsRNA no.": 3, "elongated score, rep 1": -0.53, "normal round score, rep 1": 0.46, "Call": "inactive"}
{"Target gene": "Mbs", "dsRNA no.": 4, "elongated score, rep 1": -0.53, "normal round score, rep 1": 0.29, "Call": "inactive"}
